Entries after “also recorded” stand apart in the source; their conditions may differ. At least one compound was matched to its structure with a doubt left. Some entries share one result that the patent states for a list of compounds.
Key:
Assay type in all cases: cell-based
[1] = test system: vimentin in MDA-MB-231 spheroids; assay: Immunofluorescent vimentin staining of whole and sectioned spheroids (confocal)
[2] = test system: VimPro-Fluc-MDA-MB-231 spheroids; assay: Live 3D-spheroid vimentin expression assay (VimPro-Fluc, DMNPE-caged luciferin); conditions: for downregulation of VimPro-Fluc activity: 72 h treatment, normalized to spheroid viability, 10 μM (Dasatinib 1 and 10 nM)
[3] = test system: MDA-MB-231 spheroids; assay: Modified Boyden chamber cell invasion assay of cells dissociated from spheroids; conditions: control modulators, 72 h treatment, 24 h invasion, FIG. 6
Method: Spheroids were treated as in the primary assay. Following treatment, each sample group was disassociated into single cell suspensions and seeded into invasion chambers followed by a 24 h incubation period. VimPro-Fluc-MDA-MB-231 spheroids were treated with control EMT modulators as described using 15 spheroids per sample group. The spheroids for each sample group were pooled into 1.5 ml, micro tubes and collected by centrifugation at 10,000 rpm for 10 min at room temperature.
Each sample group was then treated with 200 μL of spheroid dissociation solution (0.25% trypsin-EDTA) and incubated at 37° C. for 30 min. Single cell suspensions of each group in RPMI-1640 medium containing 0.1% BSA were seeded at 35,000 cells/chamber (50 μL) into the top chambers of a 96-well invasion plate (BD Biosciences; Bedford, Mass.) previously coated with 50 μL of […]™ (40 μg/mL protein in RPMI-1640 medium). Chemoattractant (10%
FBS in RPMI-1640 medium, 150 μL) was added to each bottom chamber and the plate was incubated (37° C., 5% CO2) for 24 h. Following incubation the insert was removed and the medium aspirated from both top and bottom chambers. […] Invading cells were quantified using five random fields per filter insert in triplicate at 20× magnification using a fluorescent microscope equipped with metamorph image analysis and quantification software (Molecular Devices; Downingtown, Pa.).

Structure (SMILES) | downregulation of vimentin throughout the whole spheroid vs untreated ([1]; sectioned spheroids stained for vimentin, 72 h) | vimentin expression (positive control of pilot screen) ([2]; 10 μM, 72 h) | downregulation of VimPro-Fluc activity [2] [%] | vimentin protein expression by immunofluorescence ([1]; whole spheroid, outer surface / peripheral layer, U0126 10 μM 72 h) | vimentin promoter expression ([2]; 10 nM, 72 h, FIG. 2B,C) | invasive potential of MDA-MB-231 spheroids (in words) [3]
CNC(=O)c1ccccc1Sc1ccc2c(/C=C/c3ccccn3)n[nH]c2c1 [Axitinib] | more than 80% | downregulates vimentin expression | ≥ 70 |  |  | 
Cc1nc(Nc2ncc(C(=O)Nc3c(C)cccc3Cl)s2)cc(N2CCN(CCO)CC2)n1 [Dasatinib] |  |  | ≥ 70 | repression of Vimentin expression | downregulate vimentin promoter expression, most notably | no statistical difference; also recorded: did not significantly alter
C[C@@H](Oc1cc(-c2cnn(C3CCNCC3)c2)cnc1N)c1c(Cl)ccc(F)c1Cl [PF2341066, PF-2341066] |  |  | ≥ 70 |  |  | 
